US12065512B2 (Igisu Co., Ltd., priority 2015, dated 2024)

Test: peptide synthesis
Details: whole synthesis, UV 215 nm

With “CFGRKMDRISSSSGLGC (cysteine pairing not given here)” the “final HPLC purity” value was 99.2%.

No end group written: not given here.
